Data as given in paper PMC9334755 (Cancer Biology & Medicine, 2021).

Columns and labels:
[1] = rat, in vivo, iv, 5 mg/kg
[2] = Caco-2 permeability assay; conditions: human
Description: protein kinases Beagle dog PK
Kinase Inhibition (%) Kinase Inhibition (%) IV Oral
Species Plasma protein binding (%)
Tcells, and B-cell lymphoma
Compound Caco-2 permeability assay
(1 picture or pasted object on this page, not shown here)

SMILES	CL [1] [mL/min/kg]	Vss [1] [L/kg]	t½ [1] [h]	Papp [2] [×10⁻⁶ cm/s]
COC/C=C/C(=O)N1CC[C@@H](n2nc(-c3ccc(Oc4ccccc4)cc3)c(C(N)=O)c2N)C1 [SY-1530]	22.9	1.835	3.08	
CC(C)NCC(O)COc1ccc(CC(N)=O)cc1 (stereo not shown) [atenolol, reference compound]				0.455
